These are yes or no findings as the source states them, for the method shown. In cells and extracts the contact can be indirect. Some binding calls cover weakened binding; strength is not graded here.

By UniProt entry, the sequences of proteins in these tests, tags left out.
UniProt P13010: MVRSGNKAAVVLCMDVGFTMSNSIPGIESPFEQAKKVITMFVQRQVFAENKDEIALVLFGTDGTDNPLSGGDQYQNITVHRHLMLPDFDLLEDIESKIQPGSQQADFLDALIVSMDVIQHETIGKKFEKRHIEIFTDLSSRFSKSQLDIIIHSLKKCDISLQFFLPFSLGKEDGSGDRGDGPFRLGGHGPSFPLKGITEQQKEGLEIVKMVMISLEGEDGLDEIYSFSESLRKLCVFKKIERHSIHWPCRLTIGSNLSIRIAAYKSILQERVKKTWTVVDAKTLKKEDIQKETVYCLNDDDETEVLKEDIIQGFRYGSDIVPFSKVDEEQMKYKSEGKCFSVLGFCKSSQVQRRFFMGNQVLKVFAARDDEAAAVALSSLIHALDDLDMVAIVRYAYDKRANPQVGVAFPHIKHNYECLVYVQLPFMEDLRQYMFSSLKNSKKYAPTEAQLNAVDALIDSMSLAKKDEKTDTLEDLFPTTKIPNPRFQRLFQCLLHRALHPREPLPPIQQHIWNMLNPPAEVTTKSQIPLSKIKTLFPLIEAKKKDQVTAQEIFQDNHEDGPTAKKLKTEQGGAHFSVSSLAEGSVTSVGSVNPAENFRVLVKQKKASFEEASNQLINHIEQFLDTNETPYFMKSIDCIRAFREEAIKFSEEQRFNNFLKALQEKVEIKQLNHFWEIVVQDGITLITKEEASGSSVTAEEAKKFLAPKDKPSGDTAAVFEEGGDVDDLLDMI
UniProt Q92793: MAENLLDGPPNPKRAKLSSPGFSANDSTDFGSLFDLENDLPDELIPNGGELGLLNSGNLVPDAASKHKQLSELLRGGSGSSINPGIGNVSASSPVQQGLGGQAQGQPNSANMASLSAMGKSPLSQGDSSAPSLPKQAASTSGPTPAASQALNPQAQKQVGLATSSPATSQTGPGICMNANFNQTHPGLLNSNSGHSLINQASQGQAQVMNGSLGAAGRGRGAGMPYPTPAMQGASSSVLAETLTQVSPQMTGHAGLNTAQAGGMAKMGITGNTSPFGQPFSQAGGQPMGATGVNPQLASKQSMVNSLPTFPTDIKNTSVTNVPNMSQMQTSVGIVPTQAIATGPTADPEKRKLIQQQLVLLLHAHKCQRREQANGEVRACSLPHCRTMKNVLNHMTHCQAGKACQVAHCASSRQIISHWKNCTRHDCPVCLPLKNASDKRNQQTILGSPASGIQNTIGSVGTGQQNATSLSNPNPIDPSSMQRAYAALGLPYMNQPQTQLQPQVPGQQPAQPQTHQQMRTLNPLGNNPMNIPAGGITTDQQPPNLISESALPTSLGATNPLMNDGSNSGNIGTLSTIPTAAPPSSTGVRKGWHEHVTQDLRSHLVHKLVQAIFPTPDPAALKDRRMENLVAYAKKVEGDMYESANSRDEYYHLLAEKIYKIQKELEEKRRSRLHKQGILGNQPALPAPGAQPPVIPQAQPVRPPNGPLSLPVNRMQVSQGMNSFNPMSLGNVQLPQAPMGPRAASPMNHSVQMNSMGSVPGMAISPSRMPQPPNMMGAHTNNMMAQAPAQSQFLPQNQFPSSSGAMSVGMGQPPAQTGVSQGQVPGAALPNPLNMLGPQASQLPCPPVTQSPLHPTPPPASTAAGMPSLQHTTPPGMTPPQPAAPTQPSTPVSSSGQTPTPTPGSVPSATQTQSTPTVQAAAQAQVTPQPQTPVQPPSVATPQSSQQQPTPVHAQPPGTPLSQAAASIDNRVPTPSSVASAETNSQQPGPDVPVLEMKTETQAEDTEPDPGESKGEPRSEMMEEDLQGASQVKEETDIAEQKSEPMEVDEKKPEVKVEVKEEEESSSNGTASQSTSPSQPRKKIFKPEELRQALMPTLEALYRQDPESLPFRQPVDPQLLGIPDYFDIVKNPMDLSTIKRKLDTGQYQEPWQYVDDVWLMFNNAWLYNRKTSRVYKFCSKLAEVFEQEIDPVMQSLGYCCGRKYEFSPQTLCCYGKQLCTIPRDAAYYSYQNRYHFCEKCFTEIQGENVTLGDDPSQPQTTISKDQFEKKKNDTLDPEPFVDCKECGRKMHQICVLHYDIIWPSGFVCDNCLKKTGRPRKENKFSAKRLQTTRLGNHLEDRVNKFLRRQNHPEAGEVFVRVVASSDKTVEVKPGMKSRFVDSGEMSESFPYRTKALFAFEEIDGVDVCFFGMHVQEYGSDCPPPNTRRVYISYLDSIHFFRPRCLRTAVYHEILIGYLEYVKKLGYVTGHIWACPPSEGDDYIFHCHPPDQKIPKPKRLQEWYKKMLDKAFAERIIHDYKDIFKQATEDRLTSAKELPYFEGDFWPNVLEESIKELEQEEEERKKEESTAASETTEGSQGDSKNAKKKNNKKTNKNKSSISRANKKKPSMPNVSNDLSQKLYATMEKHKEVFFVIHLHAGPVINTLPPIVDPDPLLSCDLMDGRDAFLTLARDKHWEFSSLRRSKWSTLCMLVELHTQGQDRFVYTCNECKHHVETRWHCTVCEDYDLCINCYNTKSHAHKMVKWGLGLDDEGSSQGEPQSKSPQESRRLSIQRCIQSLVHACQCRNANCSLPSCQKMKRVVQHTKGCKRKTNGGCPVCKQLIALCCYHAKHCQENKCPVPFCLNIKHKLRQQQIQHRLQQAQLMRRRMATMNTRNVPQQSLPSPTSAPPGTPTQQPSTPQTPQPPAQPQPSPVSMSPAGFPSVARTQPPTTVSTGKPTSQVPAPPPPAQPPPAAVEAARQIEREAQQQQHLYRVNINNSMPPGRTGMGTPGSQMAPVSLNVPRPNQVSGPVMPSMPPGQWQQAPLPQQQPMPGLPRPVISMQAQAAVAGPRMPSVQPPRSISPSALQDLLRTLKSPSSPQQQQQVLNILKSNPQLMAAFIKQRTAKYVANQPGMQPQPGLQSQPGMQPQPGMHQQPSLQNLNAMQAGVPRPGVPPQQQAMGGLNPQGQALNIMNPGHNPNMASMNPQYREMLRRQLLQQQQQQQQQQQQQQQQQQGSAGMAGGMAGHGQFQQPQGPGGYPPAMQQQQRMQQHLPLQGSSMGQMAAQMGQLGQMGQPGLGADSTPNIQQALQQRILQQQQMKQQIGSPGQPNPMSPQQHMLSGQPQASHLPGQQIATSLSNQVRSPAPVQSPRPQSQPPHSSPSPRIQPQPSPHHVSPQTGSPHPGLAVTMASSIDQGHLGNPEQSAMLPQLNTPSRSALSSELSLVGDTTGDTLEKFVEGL

The test deals with Ku80, X-ray repair complementing defective repair in Chinese hamster cells 5 (XRCC5) (human (endogenous in H1299, H460 and A549)) (UniProt P13010). The test is described as follows: co-IP; nuclear extracts (300 μg) of H1299, H460 and A549 cells incubated with a rabbit polyclonal anti-Ku80 antibody or nonimmune rabbit IgG overnight at 4°C; protein A/G agarose beads; washed with PBS; Western blot with a CBP antibody.

For the substance “CBP, a transcription co-activator (from UniProt Q92793 1-2442)”, the binding entry is listed as “binds”.

The record behind these values is PMC4480734.
